Source: article PMC8027484
These are yes or no findings as the source states them, for the method shown. In cells and extracts the contact can be indirect. Here binding means that the protein was enriched with, or labelled near, the bait; the list need not be complete. Sequences can lack the tags named with a protein.

Target: T1, 3×Flag-tagged-FLVCR1 (feline leukemia virus subgroup C receptor 1) (UniProt Q9Y5Y0)
T1 sequence: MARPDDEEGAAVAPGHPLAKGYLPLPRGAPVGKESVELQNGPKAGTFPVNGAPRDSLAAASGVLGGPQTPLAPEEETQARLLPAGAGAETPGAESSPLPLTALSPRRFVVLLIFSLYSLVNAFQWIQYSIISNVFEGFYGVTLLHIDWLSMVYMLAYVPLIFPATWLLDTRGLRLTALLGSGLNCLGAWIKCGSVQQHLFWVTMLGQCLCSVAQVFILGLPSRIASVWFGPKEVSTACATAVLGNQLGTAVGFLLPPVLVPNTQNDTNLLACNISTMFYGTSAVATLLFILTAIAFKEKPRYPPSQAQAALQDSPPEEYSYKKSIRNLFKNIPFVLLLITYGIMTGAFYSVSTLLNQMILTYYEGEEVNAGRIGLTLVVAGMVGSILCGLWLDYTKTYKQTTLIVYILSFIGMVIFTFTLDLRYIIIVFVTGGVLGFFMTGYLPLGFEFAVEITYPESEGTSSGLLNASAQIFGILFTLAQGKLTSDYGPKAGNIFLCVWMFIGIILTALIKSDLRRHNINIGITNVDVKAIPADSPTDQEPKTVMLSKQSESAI
Test: affinity purification with mass spectrometry; lysates of KYSE-150 cells stably expressing 3×Flag-tagged FLVCR1 (OE) or control (NC); anti-FLAG beads, eluted with 3×FLAG peptide, SDS-PAGE with Coomassie staining, bands digested with trypsin, LC-MS; proteins detected in the OE group

B1: CEBPZ (protein, UniProt Q03701 1-1054)
chain: MAAVKEPLEFHAKRPWRPEEAVEDPDEEDEDNTSEAENGFSLEEVLRLGGTKQDYLMLATLDENEEVIDGGKKGAIDDLQQGELEAFIQNLNLAKYTKASLVEEDEPAEKENSSKKEVKIPKINNKNTAESQRTSVNKVKNKNRPEPHSDENGSTTPKVKKDKQNIFEFFERQTLLLRPGGKWYDLEYSNEYSLKPQPQDVVSKYKTLAQKLYQHEINLFKSKTNSQKGASSTWMKAIVSSGTLGDRMAAMILLIQDDAVHTLQFVETLVNLVKKKGSKQQCLMALDTFKELLITDLLPDNRKLRIFSQRPFDKLEQLSSGNKDSRDRRLILWYFEHQLKHLVAEFVQVLETLSHDTLVTTKTRALTVAHELLCNKPEEEKALLVQVVNKLGDPQNRIATKASHLLETLLCKHPNMKGVVSGEVERLLFRSNISSKAQYYAICFLNQMALSHEESELANKLITVYFCFFRTCVKKKDVESKMLSALLTGVNRAYPYSQTGDDKVREQIDTLFKVLHIVNFNTSVQALMLLFQVMNSQQTISDRYYTALYRKMLDPGLMTCSKQAMFLNLVYKSLKADIVLRRVKAFVKRLLQVTCQQMPPFICGALYLVSEILKAKPGLRSQLDDHPESDDEENFIDANDDEDMEKFTDADKETEIVKKLETEETVPETDVETKKPEVASWVHFDNLKGGKQLNKYDPFSRNPLFCGAENTSLWELKKLSVHFHPSVALFAKTILQGNYIQYSGDPLQDFTLMRFLDRFVYRNPKPHKGKENTDSVVMQPKRKHFIKDIRHLPVNSKEFLAKEESQIPVDEVFFHRYYKKVAVKEKQKRDADEESIEDVDDEEFEELIDTFEDDNCFSSGKDDMDFAGNVKKRTKGAKDNTLDEDSEGSDDELGNLDDDEVSLGSMDDEEFAEVDEDGGTFMDVLDDESESVPELEVHSKVSTKKSKRKGTDDFDFAGSFQGPRKKKRNLNDSSLFVSAEEFGHLLDENMGSKFDNIGMNAMANKDNASLKQLRWEAERDDWLHNRDAKSIIKKKKHFKKKRIKTTQKTKKQRK
  binding: binds
